Experimental data as given in paper PMC3747992.
No constants are given. Whether binding was seen depends on the method and setting. Binding seen in cells or lysates may run through a third protein. Some binding calls cover weakened binding; strength is not graded here.

Amino acid sequences for entries named in this document (tags omitted).
UniProt P40337: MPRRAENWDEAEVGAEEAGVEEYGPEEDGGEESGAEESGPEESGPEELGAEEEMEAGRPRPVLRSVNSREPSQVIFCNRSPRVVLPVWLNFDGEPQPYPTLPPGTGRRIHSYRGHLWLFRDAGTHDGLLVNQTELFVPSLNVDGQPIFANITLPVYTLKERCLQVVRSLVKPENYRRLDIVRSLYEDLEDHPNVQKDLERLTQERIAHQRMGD

Molecular target: von Hippel-Lindau protein (VHL), endogenous (human (endogenous in U937)) (UniProt P40337)
Experiment: co-IP; IP with anti-VHL antibody from lysates of U937 cells treated with IFN-γ and MG132 for up to 24 h; immunoblot for hnRNP L, VHL, hnRNP A2/B1, DRBP76

binding: binds
B1: heterogeneous nuclear ribonucleoprotein L (hnRNP L), endogenous (protein, UniProt P14866 1-589)
chain: MSRRLLPRAEKRRRRLEQRQQPDEQRRRSGAMVKMAAAGGGGGGGRYYGGGSEGGRAPKRLKTDNAGDQHGGGGGGGGGAGAAGGGGGGENYDDPHKTPASPVVHIRGLIDGVVEADLVEALQEFGPISYVVVMPKKRQALVEFEDVLGACNAVNYAADNQIYIAGHPAFVNYSTSQKISRPGDSDDSRSVNSVLLFTILNPIYSITTDVLYTICNPCGPVQRIVIFRKNGVQAMVEFDSVQSAQRAKASLNGADIYSGCCTLKIEYAKPTRLNVFKNDQDTWDYTNPNLSGQGDPGSNPNKRQRQPPLLGDHPAEYGGPHGGYHSHYHDEGYGPPPPHYEGRRMGPPVGGHRRGPSRYGPQYGHPPPPPPPPEYGPHADSPVLMVYGLDQSKMNCDRVFNVFCLYGNVEKVKFMKSKPGAAMVEMADGYAVDRAITHLNNNFMFGQKLNVCVSKQPAIMPGQSYGLEDGSCSYKDFSESRNNRFSTPEQAAKNRIQHPSNVLHFFNAPLEVTEENFFEICDELGVKRPSSVKVFSGKSERSSSGLLEWESKSDALETLGFLNHYQMKNPNGPYPYTLKLCFSTAQHAS
